{
  "sequences": {"note": "Sequences of proteins named here, by UniProt entry; tags and fusion partners are left off.", "UniProt Q8NER1, whole entry, looked up": "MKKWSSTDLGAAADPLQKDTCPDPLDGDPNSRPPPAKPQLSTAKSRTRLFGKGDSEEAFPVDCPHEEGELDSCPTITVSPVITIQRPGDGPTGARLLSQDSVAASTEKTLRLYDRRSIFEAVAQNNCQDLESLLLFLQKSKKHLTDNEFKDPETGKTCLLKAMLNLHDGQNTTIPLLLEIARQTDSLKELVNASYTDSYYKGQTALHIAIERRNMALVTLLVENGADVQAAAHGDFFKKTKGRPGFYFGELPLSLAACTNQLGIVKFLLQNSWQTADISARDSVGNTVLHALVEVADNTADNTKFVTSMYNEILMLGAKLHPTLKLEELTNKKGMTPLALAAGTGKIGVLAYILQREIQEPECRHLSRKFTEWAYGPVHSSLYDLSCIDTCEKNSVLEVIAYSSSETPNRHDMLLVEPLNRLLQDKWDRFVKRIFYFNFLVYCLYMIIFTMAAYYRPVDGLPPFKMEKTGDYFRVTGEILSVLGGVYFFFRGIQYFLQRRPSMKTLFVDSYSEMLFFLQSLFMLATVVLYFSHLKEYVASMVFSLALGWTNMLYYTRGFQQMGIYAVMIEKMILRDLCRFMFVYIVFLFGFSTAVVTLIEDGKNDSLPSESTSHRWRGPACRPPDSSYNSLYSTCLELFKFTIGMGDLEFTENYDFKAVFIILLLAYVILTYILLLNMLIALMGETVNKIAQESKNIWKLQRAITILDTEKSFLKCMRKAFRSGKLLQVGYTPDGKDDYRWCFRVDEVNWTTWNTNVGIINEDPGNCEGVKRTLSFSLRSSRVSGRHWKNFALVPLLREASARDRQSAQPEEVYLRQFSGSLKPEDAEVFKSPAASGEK"},
  "source": "PubChem BioAssay AID540275",
  "about": "(National Center for Advancing Translational Sciences (NCATS), 2011)",
  "note": "About 620 (0.19%) of roughly 320,000 compounds were called active. This list was built around the results that the source calls inconclusive (neither active nor inactive); the mix of calls is not that of the screen. Cut-off read from the data, not from the text of the source: active = activation above about 80%; inconclusive = between about 30% and that limit; inactive = weaker than that.",
  "data": [
    {"biological_target": "Transient receptor potential cation channel subfamily V member 1 (Homo sapiens) (UniProt Q8NER1)", "test": "HTS Assay for Compounds that Act as Agonists of the Vanilloid Receptor 1; note: 0% is about no effect", "details": "TRPV1-expressing cells, Fluo-8 calcium influx, agonist mode; at 8.33 µM, hits give high values", "summary_of_the_method": "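TRPV1-expressing cells were cultured overnight at 35.5C and loaded with Fluo-8 calcium dye for 40 to 90 min at room temperature. After a 10 s baseline, compound was added and calcium influx was read kinetically for 3 min (ex 480/em 520 nm).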", "values": [
      {"smiles": "CCn1c(-c2cc(Cl)ccc2OC)n[nH]c1=S", "activation": "inactive: -0.347%"},
      {"smiles": "COc1ccccc1-c1nnc2sc(C3CCCCC3)nn12", "activation": "inconclusive: 31.5%"},
      {"smiles": "Cc1cccc(-n2ncc3c2CCCC3NC(=O)Cc2c(C)noc2C)c1C", "note": "(stereo unspecified)", "activation": "inconclusive: 78.3%"},
      {"smiles": "c1ccc(Nc2nc(-c3ccccn3)cs2)cc1", "activation": "inconclusive: 64.2%"},
      {"smiles": "CC1(C)Cc2c(cnn2-c2ccc(F)cc2)C(NC(=O)c2ccco2)C1", "note": "(stereo unspecified)", "activation": "inactive: 12.8%"},
      {"smiles": "O=C(CCCc1nc2ccccc2s1)NCc1ccc(F)cc1", "activation": "inconclusive: 42%"},
      {"smiles": "Cc1cccc(C(=O)NNC(=O)c2ccccc2O)c1", "activation": "inactive: 1.22%"},
      {"smiles": "CCOc1ccc(NC(=O)CCC(=O)NNS(=O)(=O)c2ccccc2[N+](=O)[O-])cc1", "activation": "inconclusive: 41.8%"},
      {"smiles": "Cc1cc(C)c2c(c1)-c1c(ssc1=S)C(C)(C)N2C(=O)CSc1nncn1C", "activation": "inactive: 1.9%"},
      {"smiles": "O=C(N/N=C/c1ccccn1)c1ccc(NC(=O)c2ccc(F)cc2)cc1", "activation": "inconclusive: 53.5%"},
      {"smiles": "CN(C(=O)C1CCCN(c2ncnc3c2nc2n3CCCCC2)C1)c1cccc(Cl)c1", "note": "(stereo unspecified)", "activation": "inconclusive: 75.9%"},
      {"smiles": "CCCCCCSc1ccc(-c2nc3ccc(C)cn3c2NCc2ccccc2)cc1OC", "activation": "inconclusive: 74.3%"},
      {"smiles": "O=C1C(Cl)=C(N2CCCCC2)C(=O)N1Cc1ccccc1", "activation": "inconclusive: 39.8%"},
      {"smiles": "Cc1cccc2cc(/C=N/NC(=O)c3ccncc3)c(Cl)nc12", "activation": "inconclusive: 51.4%"},
      {"smiles": "COc1ccc([C@H]2CC(=O)C=C(c3ccc(Cl)c(F)c3)C2)cc1", "activation": "inconclusive: 55.7%"},
      {"smiles": "O=C(NC1CC2CCCC(C1)N2S(=O)(=O)c1ccccc1)C1CCCCC1", "note": "(stereo unspecified)", "activation": "inconclusive: 54.1%"},
      {"smiles": "O=C(COC(=O)C12CC3CC(CC(C3)C1)C2)Nc1ccc(OC(F)F)cc1", "activation": "inconclusive: 40.7%"},
      {"smiles": "Cc1nonc1NC(=O)CSc1nc(CCC2CCCC2)nc2ccccc12", "activation": "inconclusive: 33.6%"},
      {"smiles": "CC(C)(CNC(=S)NCCc1ccccc1)CNC(=S)NCCc1ccccc1", "activation": "inactive: 5.38%"},
      {"smiles": "O=C(CCc1nc2ccccc2c(=O)[nH]1)N1CCN(S(=O)(=O)c2ccc(Cl)c(C(F)(F)F)c2)CC1", "activation": "inconclusive: 47.3%"},
      {"smiles": "CC(C)CN(C(=O)CCNC(=O)c1ccccc1Cl)C1CCS(=O)(=O)C1", "note": "(stereo unspecified)", "activation": "inactive: 0.784%"},
      {"smiles": "CCOC(=O)c1c(/N=C/C2=C(O)CC(C)(C)CC2=O)sc(C(C)=O)c1C", "activation": "inactive: 1.31%"},
      {"smiles": "Cc1ccc(-c2ccc(=O)n(Cc3ccc(F)cc3)n2)cc1", "activation": "inconclusive: 53%"},
      {"smiles": "Cc1cc2ccccn2c1C(=O)c1cccc(S(=O)(=O)N2CCOCC2)c1", "activation": "inconclusive: 41.9%"},
      {"smiles": "N/C(=N\\OC(=O)c1cccc(C(F)(F)F)c1)c1cnccn1", "activation": "inconclusive: 32.3%"},
      {"smiles": "N#CC(C(=O)NC1CC1)c1nc2ccccc2nc1N1CCCC1", "note": "(stereo unspecified)", "activation": "inconclusive: 38.1%"},
      {"smiles": "COc1ccc([C@H]2CC(=O)C=C(c3ccc(C)cc3)C2)cc1", "activation": "inconclusive: 60.8%"},
      {"smiles": "Cc1noc(C)c1CSc1nc2ccccc2s1", "activation": "inconclusive: 31.8%"},
      {"smiles": "O=C(Cn1cccc1)Nc1ccc(OC(F)(F)F)cc1", "activation": "inconclusive: 52.9%"},
      {"smiles": "Cc1c(OC(C)C(=O)NCc2ccccn2)ccc2c3c(c(=O)oc12)CCC3", "note": "(stereo unspecified)", "activation": "inactive: -1.93%"},
      {"smiles": "CN(C)S(=O)(=O)n1cc(/C=C(\\NC(=O)c2ccccc2F)C(=O)NCCCn2ccnc2)c2ccccc21", "activation": "inconclusive: 42.8%"},
      {"smiles": "Cc1ccc(S(=O)(=O)N2CCCC(C(=O)Nc3cccnc3)C2)cc1", "note": "(stereo unspecified)", "activation": "inconclusive: 31.7%"},
      {"smiles": "S=C(NCc1ccccn1)Nc1ccc(Cl)cc1Cl", "activation": "inactive: 3.56%"},
      {"smiles": "CCOC(=O)c1ccccc1NC(=O)c1cc2ccccc2o1", "activation": "inconclusive: 47.6%"},
      {"smiles": "COCCNC(=O)C1CCN(S(=O)(=O)c2c(C)noc2/C=C/c2cccs2)CC1", "activation": "inconclusive: 33.2%"},
      {"smiles": "CCOc1ccc(N=C(/C(C(=O)C(=O)N2CCOCC2)=C(/O)c2ccccc2)c2ccccc2)cc1", "activation": "inconclusive: 35.1%"},
      {"smiles": "Nc1cccc(-c2nc3cc(S(=O)(=O)c4ccc5oc(-c6cccc(N)c6)nc5c4)ccc3o2)c1", "activation": "inactive: -1.99%"},
      {"smiles": "NC(=O)COc1ccc(C23CC4CC(CC(C4)C2)C3)cc1", "activation": "inconclusive: 35.3%"},
      {"smiles": "COc1ccc(CNC(=O)CSCc2cnn(-c3ccccc3)c2-n2cccc2)cc1", "activation": "inconclusive: 31.2%"},
      {"smiles": "COc1ccccc1-c1c(C)oc2c(CN3CCOCC3)c(O)ccc2c1=O", "activation": "inactive: -0.536%"},
      {"smiles": "O=C(Nc1ccccc1)Nc1ccc2ocnc2c1", "activation": "inconclusive: 34.7%"},
      {"smiles": "CC1CCC(NC(=O)Nc2cccs2)CC1", "note": "(stereo unspecified)", "activation": "inconclusive: 62.5%"},
      {"smiles": "CC1CCN(C(=O)Nc2ccc3nsnc3c2)CC1", "activation": "inconclusive: 57.4%"},
      {"smiles": "CCCOc1cccc(C(=O)Nc2ccc3c(c2)OCCO3)c1", "activation": "inconclusive: 72.1%"},
      {"smiles": "C/C(=N\\NC(=O)c1nn(C)c(C)c1Br)c1ccc(NC(=O)c2ccc(C)s2)cc1", "activation": "inconclusive: 68.6%"},
      {"smiles": "CCCCC(=O)OCC(=O)Nc1ccc(SC(F)F)cc1", "activation": "inconclusive: 35.3%"}
    ]}
  ]
}
